Values from PubChem BioAssay AID743454 (Peter MacCallum Cancer Centre, 2014).
The whole screen tested about 18,000 reagents; this is an unselected part. In the full data, 450 (2.5%) are marked active. 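Single biological run; no consistent viability z cut-off exists, so the class columns, not z-scores, define the calls.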 Entries without a mark were called inactive.

- Assay: 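Genes whose loss kills vorinostat-resistant colon cancer cells under vorinostat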 (primary screen)
- Cells: human HCT116-VR colon cancer cells, selected for vorinostat resistance
- Reagent: siRNA pool against human genes, 40 nM siRNA pool
- Duration: vorinostat for 24 h, read-out about 72 h after transfection
- Treatment: vorinostat at 2.5 µM final
- Measurement: 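Two measures, CellTiter-Fluor viability and luminescent caspase 3/7 activity, each as fold change against same-plate mock wells, mean of duplicates, then screen-wide robust z-score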
- Reading the numbers: viability robust z-score: higher = more viable cells than screen typical; caspase robust z-score: higher = more caspase 3/7 activity than screen typical
- Rule for the call: 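a knock-down is a hit when classed RV1 or RV2 for lowered viability, or CA1 or CA2 for caspase activation; those lethal without drug were dropped; hits were retested singly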

SINHCAF
- viability hit class: no change
- caspase hit class: no change
- viability robust z-score: -1.04
- caspase robust z-score: 1.45

RFPL4AL1
- viability hit class: no change
- caspase hit class: no change
- viability robust z-score: -1.48
- caspase robust z-score: 4.1

RAN
- viability hit class: no change
- caspase hit class: no change
- viability robust z-score: -5.82
- caspase robust z-score: 1.02

CENPF
- viability hit class: no change
- caspase hit class: no change
- viability robust z-score: 0.04
- caspase robust z-score: 0.59

IFIT3
- viability hit class: no change
- caspase hit class: no change
- viability robust z-score: 0.72
- caspase robust z-score: 0.23

CPEB3
- viability hit class: no change
- caspase hit class: no change
- viability robust z-score: 0.85
- caspase robust z-score: 1.33

ACR
- viability hit class: no change
- caspase hit class: no change
- viability robust z-score: -0.94
- caspase robust z-score: -0.64

CLUH
- viability hit class: no change
- caspase hit class: no change
- viability robust z-score: -0.2
- caspase robust z-score: -0.29

LPAL2
- viability hit class: no change
- caspase hit class: no change
- viability robust z-score: -0.02
- caspase robust z-score: 1.23

ABCG5
- viability hit class: no change
- caspase hit class: no change
- viability robust z-score: 0.29
- caspase robust z-score: 0.38

KCTD17
- viability hit class: no change
- caspase hit class: no change
- viability robust z-score: -0.49
- caspase robust z-score: 2.09

SQOR
- viability hit class: no change
- caspase hit class: no change
- viability robust z-score: 0.9
- caspase robust z-score: -0.26

TYMSOS
- viability hit class: no change
- caspase hit class: no change
- viability robust z-score: -0.84
- caspase robust z-score: -0.44

PSG6
- viability hit class: no change
- caspase hit class: no change
- viability robust z-score: 0.6
- caspase robust z-score: 3.64

AK1
- viability hit class: no change
- caspase hit class: no change
- viability robust z-score: -0.5
- caspase robust z-score: 3.53

SAXO5
- viability hit class: no change
- caspase hit class: no change
- viability robust z-score: -1.24
- caspase robust z-score: 0.29

NKD1
- viability hit class: no change
- caspase hit class: no change
- viability robust z-score: -0.07
- caspase robust z-score: 1.29

XRCC3
- viability hit class: no change
- caspase hit class: no change
- viability robust z-score: -1.12
- caspase robust z-score: 2.24

AJUBA
- viability hit class: no change
- caspase hit class: no change
- viability robust z-score: 0.02
- caspase robust z-score: 0.3

CAMLG
- viability hit class: no change
- caspase hit class: no change
- viability robust z-score: -0.33
- caspase robust z-score: 0.07

CTNNB1
- viability hit class: no change
- caspase hit class: no change
- viability robust z-score: -2.26
- caspase robust z-score: 2.87

RPP21
- viability hit class: no change
- caspase hit class: no change
- viability robust z-score: -0.04
- caspase robust z-score: -0.3

ZNF764
- viability hit class: no change
- caspase hit class: no change
- viability robust z-score: 0.86
- caspase robust z-score: 1.84

C1orf115
- viability hit class: no change
- caspase hit class: no change
- viability robust z-score: -0.65
- caspase robust z-score: -0.36

MRPL54
- viability hit class: no change
- caspase hit class: no change
- viability robust z-score: 1.89
- caspase robust z-score: 2.75

ZIC1
- viability hit class: no change
- caspase hit class: no change
- viability robust z-score: -0.4
- caspase robust z-score: 0.74

EYA3
- viability hit class: no change
- caspase hit class: no change
- viability robust z-score: -2.54
- caspase robust z-score: -0.76

Just “viability robust z-score”, for 4 of the entries above:
SINHCAF	-1.04
RFPL4AL1	-1.48
RAN	-5.82
CENPF	0.04
